This note sets out measurements from PMC2862740, “Furin Targeted Drug Delivery for Treatment of Rhabdomyosarcoma in a Mouse Model” (PLoS ONE, 2010).

Protein sequences, listed by entry. Tags and fused reporters are not part of them. Residues count along the entry.
UniProt P09958, residues 108-794: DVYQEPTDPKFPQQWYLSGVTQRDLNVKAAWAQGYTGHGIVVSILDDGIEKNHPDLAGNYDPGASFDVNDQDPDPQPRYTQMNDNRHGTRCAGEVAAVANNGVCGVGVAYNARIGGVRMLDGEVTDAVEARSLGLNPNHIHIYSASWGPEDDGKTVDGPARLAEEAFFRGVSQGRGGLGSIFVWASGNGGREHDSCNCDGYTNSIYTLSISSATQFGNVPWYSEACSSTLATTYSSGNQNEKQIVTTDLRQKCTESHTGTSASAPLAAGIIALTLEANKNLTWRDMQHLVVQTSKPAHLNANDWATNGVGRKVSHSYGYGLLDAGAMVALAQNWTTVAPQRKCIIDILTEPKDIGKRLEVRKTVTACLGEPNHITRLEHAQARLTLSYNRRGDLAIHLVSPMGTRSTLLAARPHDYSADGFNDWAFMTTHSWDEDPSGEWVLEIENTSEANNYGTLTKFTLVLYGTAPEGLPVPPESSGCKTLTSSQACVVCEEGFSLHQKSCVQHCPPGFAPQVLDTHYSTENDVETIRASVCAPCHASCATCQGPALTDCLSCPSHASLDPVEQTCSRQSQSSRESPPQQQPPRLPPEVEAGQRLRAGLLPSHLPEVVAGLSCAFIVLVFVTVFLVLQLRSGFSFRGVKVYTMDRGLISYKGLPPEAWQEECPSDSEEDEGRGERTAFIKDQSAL

The target of this assay is furin on furin-overexpressing MRC-5 fibroblasts (MRC-5-FUR) (UniProt P09958). The assay can be described thus: phage binding assay on cells; phage on untransfected (MRC-5), furin-overexpressing (MRC-FUR) and empty vector transfected (MRC-EV) fibroblasts in vitro; phage binding quantified over control T7.

No constants are given. Whether binding was seen depends on the method and setting. Some entries that bind do so weakly or less than the wild type.

B1: phage RMS-P3/RR (peptide)
chain: CMGTINTRTRRC
Take B1: the binding entry is “binds”.
